Library screen at single concentrations

From ChEMBL document CHEMBL3988442, “University of Dundee, Small-Polar-MMV Screening Library” (2021).

Results are given as percent effect. The record does not define 0% and 100%; most values in the screen are far below 50% and negative numbers occur (in some assays of this library far below -100). The compounds are a random part of those screened. Two or more numbers in one place are separate tests of the same structure; such repeats can differ widely.

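Cell assay of Leishmania donovani living inside macrophages; the read-out is not stated. Compounds at 30 µM. The record gives no direction; compounds that gave an IC50 in retests scored well above the rest, so higher reads as stronger inhibition. Size under these conditions: about 69,000 compounds, about 1,000 of them at 50% or above in at least one test.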

| # | compound | Percent Effect |
|---|---|---|
| 1 | `Cn1ccnc1CN1CCC2(CC1)CC(NC(=O)c1ccccn1)CO2.O=C(O)C(F)(F)F` (configuration not stated) | 2.919% |
| 2 | `O=C1CCC2(CCCN(Cc3nnc(C4CC4)o3)C2)CN1CCO` (configuration not stated) | 36.09% |
| 3 | `Cc1csc(N2CCN(CC(=O)Nc3nncs3)CC2C)n1` (configuration not stated) | 21.17% |
| 4 | `O=C(NCCO)c1coc(CN2CCN(c3ccccc3F)CC2)n1` | 38.67% |
| 5 | `CC(C)OCCOCc1cccc(NC(=O)NCc2ccncc2)c1` | -1.123% |
| 6 | `Nc1ccncc1-n1cc(CCO)cn1` | 15.23% |
| 7 | `COc1c(Br)c(C(=O)NC2CCCCC2)nn1C` | 2.878% |
| 8 | `CCCc1nnc(NC2CCN(C3CCOCC3)CC2)o1` | 19.69% |
| 9 | `CC(O)CN1CCN(C(=O)c2cnn(-c3ccccc3F)c2)CC1` (configuration not stated) | 19.64% |
| 10 | `COCC(=O)N(C)Cc1cccc(Cl)c1` | 16.95% |
| 11 | `O=C(Nc1ccc2ncsc2c1)N1CCCN([C@H]2COC[C@@H]2O)CC1` | -1.184% |
| 12 | `CNC(=O)C(C)S(=O)(=O)Cc1csc(-c2cccs2)n1` (configuration not stated) | 0.4565% |
| 13 | `[H][C@@]12CC(C)=CC[C@]1([H])CN(C(=O)c1ccc(-c3nc[nH]n3)cc1)C2` | 1.436% |
| 14 | `CCOc1cc(C)nc(N2CCN(C(=O)CN(C)C3CC3)CC2)n1` | -5.859% |
| 15 | `COc1cc(OC)c(-n2nnc(C(=O)O)c2C)cc1Cl` | 22.69% |
| 16 | `CC(=O)NCCCNC(=O)N1CCN(c2cc(F)ccc2F)CC1` | -28.73% |
| 17 | `O=C(O)C(=O)O.c1cncc(-c2noc(C3CN(Cc4cccs4)C3)n2)c1` | -9.595% and 2.511% |
| 18 | `Cc1ccccc1C1(CN)CCCCC1` | 26.25% |
| 19 | `CN(C)C(=O)C1(c2cnccn2)CCCN1C(=O)Cc1ccccc1` (configuration not stated) | 1.992% |
| 20 | `Cc1cnn(CC2CN(CCCS(=O)(=O)N(C)C)CCO2)c1` (configuration not stated) | 2.662% |
| 21 | `Cc1nn(C)c(C)c1C1COCCN1C(=O)c1n[nH]c2ccccc12` (configuration not stated) | 40.99% |
| 22 | `COc1ccnc(NC(=O)c2cscc2C)c1` | -0.5802% |
| 23 | `COc1ccc(NC(=O)NCC(C)N2CCc3ccccc32)cc1` (configuration not stated) | -19.76% |
| 24 | `CN(C)c1cc(C(=O)N2CCN(c3cnccn3)CC2)ccn1` | 14.19% |
| 25 | `Cc1ccc(CN2CCC3(CC2)CC3CN(C)Cc2cccnc2)o1.O=C(O)C(F)(F)F.O=C(O)C(F)(F)F.O=C(O)C(F)(F)F` (configuration not stated) | -0.07052% and 38.2% |
| 26 | `N#Cc1c(Cl)nsc1NCc1ccc(N2CCSCC2)cc1` | 88.25% |
| 27 | `CCN1CCCCC1C(=O)N1CCN(C(=O)OC)CC1` (configuration not stated) | 25.13% |
| 28 | `C[C@@H]1CN(C(=O)Cn2ccc3ncccc3c2=O)C[C@H](C)O1` | 0.518% |
| 29 | `O=C(O)C(F)(F)F.[H][C@]12CCCN(Cc3ccc(C)o3)[C@@]1([H])CN(C(C)=O)C2` | 0.08918% |
| 30 | `CC(C)(C)OCCN1CCCC1c1nc(Cc2ccc(F)cc2)no1` (configuration not stated) | 1.852% |
| 31 | `Cc1cnn(-c2ccc(C(=O)N3CCCC(n4ccnc4C)C3)cc2)c1` (configuration not stated) | 29.63% |
| 32 | `CCn1cc(S(=O)(=O)Nc2nc3c(s2)CCCC3)cn1` | 2.336% |
| 33 | `O=C(C(NCc1cccc(F)c1F)c1ccccc1)N1CCOCC1` (configuration not stated) | 18.82% |
| 34 | `COc1ccc(-n2ccc(C(=O)NCCN3CCCC(C)C3)n2)cc1` (configuration not stated) | -14.54% |
| 35 | `Cc1nc2cc(C(=O)N(CCN(C)C)CCN(C)C)ccc2n1C` | 11.26% |
| 36 | `[H][C@@]12CC[C@H](Oc3cccc(F)c3)[C@]1([H])CN(C(=O)COCCOC)C2` | 1.693% and -22.88% |
| 37 | `CN(C)CCN(C)C[C@@H]1CN(Cc2cccc(O)c2)C[C@@H]1CO` | 19.62% |
| 38 | `COc1ccc(-c2ccc(C(=O)NCCCC(N)=O)c(F)c2)c(F)c1` | 2.402% |
| 39 | `O=C(O)C(F)(F)F.[H][C@@]12CN(C(=O)c3ccnnc3)C[C@]1([H])C(=O)N(Cc1csc(C)n1)C2` | 13.66% |
| 40 | `NC(=O)CCSc1n[nH]c(-c2ccc3c(c2)CCC3)n1` | 29.37% |
| 41 | `COCC(=O)N1CCC(=O)N(C2CCCC2)Cc2ccccc21` | -14.29% |
| 42 | `O=c1[nH]nc2n1CCN(S(=O)(=O)c1ccccc1Cl)C2` | 13.21% |
| 43 | `CCC(CO)N(Cc1ccccn1)C(=O)c1ccc(F)c(F)c1` (configuration not stated) | 16.34% |
| 44 | `O=C(c1ccccc1F)N(CCCO)S(=O)(=O)c1cccs1` | 16.79% |
| 45 | `Cc1ccc2nc(CN(C)Cc3[nH]nc4c3CCC4)[nH]c2c1C` | 40.9% |
| 46 | `O=C(O)C1(O)CCN(c2ccc3cccc(Cl)c3n2)CC1` | 45.15% |
| 47 | `O=C(O)C(F)(F)F.[H][C@@]12CCCO[C@]1([H])[C@H](NS(C)(=O)=O)CN(Cc1ccc(OC)cc1)C2` | 25.48% |
| 48 | `O=C(NCCC(=O)N1CCCC1)c1cccnc1` | -0.558% |
| 49 | `Cc1cc2c(=O)n3c(nc2s1)CCN(C(=O)c1ccnn1C(C)C)CC3` | 2.386% |
| 50 | `CCN(CC)C(CNS(=O)(=O)c1ccc(C(=O)NC)cc1)c1ccco1` (configuration not stated) | 29.05% |
| 51 | `CCOc1ccc(S(=O)(=O)N(C)Cc2cnn(CC)c2)cc1` | -39.27% |
| 52 | `CC(NCc1ccc(OCC(N)=O)cc1)c1ccc2c(c1)CCCC2` (configuration not stated) | 72.53% |
| 53 | `O=C(Cc1csc(-c2ccoc2)n1)NCCC(=O)N1CCCCC1` | 2.695% |
| 54 | `Cc1cc(N2CCC(O)(CN(C)C(=O)CCN)C2)c2cnccc2n1` (configuration not stated) | 25.42% |
| 55 | `Cc1ccc2[nH]c(C(=O)NCCCn3ccnn3)c(C)c2c1` | -11.12% |
| 56 | `Cc1noc(C)c1S(=O)(=O)N(C)Cc1nn(C)c(Cl)c1Cl` | -7.967% |
| 57 | `CC[C@H]1CN(S(C)(=O)=O)CC[C@H]1CC(=O)NCCSC` | -14.04% |
| 58 | `CC(Oc1ccccc1)C(=O)N1CCCN(Cc2nccn2C)CC1` (configuration not stated) | 14.11% |
| 59 | `COc1ccc(C)cc1NC(=O)Cn1nc(C)c(C#N)c1N` | -28.07% |
| 60 | `O=C1CCCN1CCCC(=O)N1CCC2(CC1)[C@H](O)C[C@@H]2O` | -6.561% |
| 61 | `CCc1nnc2n1CC(CNCc1ccncc1)CC2` (configuration not stated) | -5.464% |
| 62 | `CCN(CC1CCOC1)S(=O)(=O)Cc1cc(Cl)ccc1OC` (configuration not stated) | 28.13% |
| 63 | `O=c1oc(-c2cccs2)nn1CC(O)c1ccccc1F` (configuration not stated) | 4.76% |
| 64 | `c1cncc(CN2CCc3ncnc(NCCc4c[nH]cn4)c3CC2)c1` | 39.27% |
| 65 | `Cc1cc(CNC(=O)N2CCN(C(C)c3cccnc3)CC2)c(C)o1` (configuration not stated) | 16.86% |
| 66 | `O=C(c1cc2c(s1)CCOC2)N1CCCC1Cn1cccn1` (configuration not stated) | 17.13% |
| 67 | `Cc1ccsc1C(Cc1ccccc1)NC(=O)CNC(=O)C1CC1` (configuration not stated) | 6.618% |
| 68 | `CC(SCC(=O)N(C)CC(=O)NC1CC1)c1cc(F)ccc1F` (configuration not stated) | 16.33% |
| 69 | `Cc1cc(C)nc(Nc2cncc(C3CCCN(S(C)(=O)=O)C3)n2)n1` (configuration not stated) | 13.79% |
| 70 | `[H][C@@]12CCCCCN(C(=O)C3CC3)[C@@]1([H])[C@H](c1cccc(F)c1)CN2C` | 33.54% |
| 71 | `O=C(c1cccnc1)N1Cc2ccccc2OCC1Cn1ccnc1` (configuration not stated) | 24.04% |
| 72 | `O=C(CCC1CCCCO1)NCc1cnn(-c2ccc(F)cc2F)c1` (configuration not stated) | -11.49% |
| 73 | `CN1[C@H](CO)C[C@H](CNCc2ccc(Cl)c(F)c2)[C@@H]1c1ccccc1F` | 15.37% |
| 74 | `CCOc1cccc(CNc2ccccc2OC)c1O` | 16.72% |
| 75 | `Cc1cc(NC(=O)NCc2nncn2C)ccc1OC(C)C` | -9.373% |

The first 7 entries again:

- Cn1ccnc1CN1CCC2(CC1)CC(NC(=O)c1ccccn1)CO2.O=C(O)C(F)(F)F (configuration not stated) : 2.919%
- O=C1CCC2(CCCN(Cc3nnc(C4CC4)o3)C2)CN1CCO (configuration not stated) : 36.09%
- Cc1csc(N2CCN(CC(=O)Nc3nncs3)CC2C)n1 (configuration not stated) : 21.17%
- O=C(NCCO)c1coc(CN2CCN(c3ccccc3F)CC2)n1 : 38.67%
- CC(C)OCCOCc1cccc(NC(=O)NCc2ccncc2)c1 : -1.123%
- Nc1ccncc1-n1cc(CCO)cn1 : 15.23%
- COc1c(Br)c(C(=O)NC2CCCCC2)nn1C : 2.878%